Results from publication doi:10.1101/2020.06.24.169185.
Where two headings read alike, the source gives them in different places. No constants are given. Whether binding was seen depends on the method and setting. For some assays here: In cells and extracts the contact can be indirect. For some assays here: Where a sequence is shown, tags or fusion partners need not be part of it.

The chains behind the UniProt entries cited, without tags or fusion partners.
UniProt P48432: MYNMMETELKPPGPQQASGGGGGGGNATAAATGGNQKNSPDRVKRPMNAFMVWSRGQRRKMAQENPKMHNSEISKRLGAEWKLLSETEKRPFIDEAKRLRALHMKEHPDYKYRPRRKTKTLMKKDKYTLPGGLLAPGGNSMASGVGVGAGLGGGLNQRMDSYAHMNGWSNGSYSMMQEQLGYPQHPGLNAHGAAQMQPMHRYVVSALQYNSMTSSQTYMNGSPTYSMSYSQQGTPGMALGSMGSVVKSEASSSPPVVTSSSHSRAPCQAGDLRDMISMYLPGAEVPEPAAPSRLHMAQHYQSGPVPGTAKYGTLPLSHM
UniProt P20263: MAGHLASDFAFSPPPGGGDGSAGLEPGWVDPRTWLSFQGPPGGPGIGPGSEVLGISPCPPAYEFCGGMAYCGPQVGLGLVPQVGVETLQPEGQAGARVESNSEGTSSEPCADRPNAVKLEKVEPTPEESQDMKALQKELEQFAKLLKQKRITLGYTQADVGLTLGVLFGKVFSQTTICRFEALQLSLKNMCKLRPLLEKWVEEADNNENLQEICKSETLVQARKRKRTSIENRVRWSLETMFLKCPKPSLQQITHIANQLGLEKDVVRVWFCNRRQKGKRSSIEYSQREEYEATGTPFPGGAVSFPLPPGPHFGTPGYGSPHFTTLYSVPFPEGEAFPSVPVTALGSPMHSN

Experiments:
(FLAG)3-Nanog = target: T1, (FLAG)3-Nanog (UniProt Q80Z64); assay: co-IP
T1 sequence: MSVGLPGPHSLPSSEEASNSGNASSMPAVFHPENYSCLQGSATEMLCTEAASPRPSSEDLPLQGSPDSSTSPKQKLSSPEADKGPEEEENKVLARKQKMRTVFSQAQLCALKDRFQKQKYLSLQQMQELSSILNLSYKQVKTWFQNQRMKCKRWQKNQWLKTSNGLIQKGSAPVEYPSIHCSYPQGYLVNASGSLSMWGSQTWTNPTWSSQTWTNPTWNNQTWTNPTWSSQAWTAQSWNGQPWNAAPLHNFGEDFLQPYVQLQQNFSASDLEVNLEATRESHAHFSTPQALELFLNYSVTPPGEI

(FLAG)3-Sox2 [1] = target: (FLAG)3-Sox2 (UniProt P48432); assay: co-IP
mCherry-Sox2 = mCherry-Sox2 (UniProt P48432); assay: fluorescence cross-correlation spectroscopy
mCherry-Nanog [2] = target: mCherry-Nanog (UniProt Q80Z64); assay: fluorescence cross-correlation spectroscopy
mCherry-Oct4 = mCherry-Oct4 (UniProt P20263); assay: fluorescence cross-correlation spectroscopy
(FLAG)3-Oct4 = (FLAG)3-Oct4 (UniProt P20263); assay: fluorescence correlation spectroscopy
(FLAG)3-Sox2 [3] = target: (FLAG)3-Sox2 (UniProt P48432); assay: fluorescence correlation spectroscopy
mCherry-Nanog [4] = target: mCherry-Nanog (UniProt Q80Z64); assay: fluorescence cross-correlation spectroscopy; remark: listed apart in the source

Measured: binding

GFP-Nanog-W10A (from UniProt Q80Z64)
no binding: all assays above
